Laboratory results as given in the supplement of paper PMC12067093, “Discovery and optimisation of a covalent ligand for TRIM25 and its application to targeted protein ubiquitination” (Chemical Science, 2025).
The other results are listed elsewhere or left out.

Sequences of proteins named here, by UniProt entry; tags and fusion partners are left off. A change or cut given only in a name is not applied to a line headed by its entry.
UniProt Q96QC0: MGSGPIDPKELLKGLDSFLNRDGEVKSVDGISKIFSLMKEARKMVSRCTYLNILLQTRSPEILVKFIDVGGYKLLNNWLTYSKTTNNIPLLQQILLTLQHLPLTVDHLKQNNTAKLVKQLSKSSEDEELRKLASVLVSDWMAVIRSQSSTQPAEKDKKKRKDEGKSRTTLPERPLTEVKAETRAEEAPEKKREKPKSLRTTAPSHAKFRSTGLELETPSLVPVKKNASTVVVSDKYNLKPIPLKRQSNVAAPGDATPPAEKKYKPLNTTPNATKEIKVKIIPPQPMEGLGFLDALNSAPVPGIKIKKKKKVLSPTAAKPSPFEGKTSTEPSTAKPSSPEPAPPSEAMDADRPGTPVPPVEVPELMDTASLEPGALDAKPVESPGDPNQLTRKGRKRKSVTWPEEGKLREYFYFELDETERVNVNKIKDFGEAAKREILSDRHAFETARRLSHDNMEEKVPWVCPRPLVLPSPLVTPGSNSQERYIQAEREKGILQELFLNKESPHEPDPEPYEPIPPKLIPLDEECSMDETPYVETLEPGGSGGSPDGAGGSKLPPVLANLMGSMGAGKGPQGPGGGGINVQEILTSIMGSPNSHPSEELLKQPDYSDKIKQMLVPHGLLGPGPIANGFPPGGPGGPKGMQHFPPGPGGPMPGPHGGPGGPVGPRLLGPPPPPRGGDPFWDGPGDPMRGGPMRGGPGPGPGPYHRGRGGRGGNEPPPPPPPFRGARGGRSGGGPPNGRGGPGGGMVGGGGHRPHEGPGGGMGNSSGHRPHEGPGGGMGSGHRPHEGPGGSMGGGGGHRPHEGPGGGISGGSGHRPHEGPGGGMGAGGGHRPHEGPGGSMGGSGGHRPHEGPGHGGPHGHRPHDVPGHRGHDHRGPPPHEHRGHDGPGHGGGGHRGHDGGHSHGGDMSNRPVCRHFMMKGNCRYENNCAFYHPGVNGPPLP
UniProt O43314: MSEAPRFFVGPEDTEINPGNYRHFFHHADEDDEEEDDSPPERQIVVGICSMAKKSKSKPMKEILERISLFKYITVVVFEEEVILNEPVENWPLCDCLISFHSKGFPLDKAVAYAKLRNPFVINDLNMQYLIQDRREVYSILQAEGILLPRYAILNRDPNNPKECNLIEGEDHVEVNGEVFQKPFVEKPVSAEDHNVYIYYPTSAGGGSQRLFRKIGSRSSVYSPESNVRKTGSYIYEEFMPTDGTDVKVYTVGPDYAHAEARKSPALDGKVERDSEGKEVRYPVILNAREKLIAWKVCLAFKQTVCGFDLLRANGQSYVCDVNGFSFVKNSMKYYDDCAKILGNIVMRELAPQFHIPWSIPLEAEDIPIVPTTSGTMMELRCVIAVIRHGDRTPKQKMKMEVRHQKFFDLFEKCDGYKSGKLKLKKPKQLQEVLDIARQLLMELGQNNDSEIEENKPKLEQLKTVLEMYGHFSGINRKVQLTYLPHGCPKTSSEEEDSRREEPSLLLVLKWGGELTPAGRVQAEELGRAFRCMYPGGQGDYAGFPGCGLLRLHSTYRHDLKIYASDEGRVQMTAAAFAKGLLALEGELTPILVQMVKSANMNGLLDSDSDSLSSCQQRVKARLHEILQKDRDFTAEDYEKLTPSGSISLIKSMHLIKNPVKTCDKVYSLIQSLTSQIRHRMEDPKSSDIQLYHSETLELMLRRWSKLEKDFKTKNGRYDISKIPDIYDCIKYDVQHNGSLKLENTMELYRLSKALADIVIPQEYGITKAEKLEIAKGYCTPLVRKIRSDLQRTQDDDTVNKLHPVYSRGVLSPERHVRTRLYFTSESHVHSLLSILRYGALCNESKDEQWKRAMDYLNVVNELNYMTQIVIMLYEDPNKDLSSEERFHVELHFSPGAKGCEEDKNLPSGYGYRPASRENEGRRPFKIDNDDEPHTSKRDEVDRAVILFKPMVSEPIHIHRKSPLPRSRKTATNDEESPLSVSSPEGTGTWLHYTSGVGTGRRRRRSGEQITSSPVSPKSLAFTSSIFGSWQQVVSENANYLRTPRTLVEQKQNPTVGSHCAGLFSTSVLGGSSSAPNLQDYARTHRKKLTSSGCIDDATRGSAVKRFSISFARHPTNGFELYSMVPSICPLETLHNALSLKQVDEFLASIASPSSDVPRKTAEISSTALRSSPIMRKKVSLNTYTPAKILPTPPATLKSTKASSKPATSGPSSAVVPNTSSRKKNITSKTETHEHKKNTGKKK
UniProt P62140, whole entry, looked up: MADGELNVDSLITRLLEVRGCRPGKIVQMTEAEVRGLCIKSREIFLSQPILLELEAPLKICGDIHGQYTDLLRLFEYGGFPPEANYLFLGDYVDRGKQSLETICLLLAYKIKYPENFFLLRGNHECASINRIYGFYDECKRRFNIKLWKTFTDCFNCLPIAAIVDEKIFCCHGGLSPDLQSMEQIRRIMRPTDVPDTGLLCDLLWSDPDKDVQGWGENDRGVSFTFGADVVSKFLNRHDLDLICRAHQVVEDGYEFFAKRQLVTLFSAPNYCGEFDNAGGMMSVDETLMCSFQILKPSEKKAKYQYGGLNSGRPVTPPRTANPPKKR
UniProt P50336: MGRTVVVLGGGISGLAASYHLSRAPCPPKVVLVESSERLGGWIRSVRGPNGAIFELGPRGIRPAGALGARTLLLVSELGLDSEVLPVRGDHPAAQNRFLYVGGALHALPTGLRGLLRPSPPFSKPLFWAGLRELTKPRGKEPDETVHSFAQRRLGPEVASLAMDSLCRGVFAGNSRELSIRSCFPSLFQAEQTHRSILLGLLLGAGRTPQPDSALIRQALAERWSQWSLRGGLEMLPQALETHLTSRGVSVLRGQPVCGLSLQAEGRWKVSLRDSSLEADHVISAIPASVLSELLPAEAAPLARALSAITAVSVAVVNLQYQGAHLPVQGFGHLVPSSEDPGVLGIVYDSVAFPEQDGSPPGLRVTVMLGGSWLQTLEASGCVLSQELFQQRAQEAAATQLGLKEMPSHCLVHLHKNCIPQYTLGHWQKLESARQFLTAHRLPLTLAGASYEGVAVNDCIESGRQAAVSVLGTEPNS
UniProt O75170: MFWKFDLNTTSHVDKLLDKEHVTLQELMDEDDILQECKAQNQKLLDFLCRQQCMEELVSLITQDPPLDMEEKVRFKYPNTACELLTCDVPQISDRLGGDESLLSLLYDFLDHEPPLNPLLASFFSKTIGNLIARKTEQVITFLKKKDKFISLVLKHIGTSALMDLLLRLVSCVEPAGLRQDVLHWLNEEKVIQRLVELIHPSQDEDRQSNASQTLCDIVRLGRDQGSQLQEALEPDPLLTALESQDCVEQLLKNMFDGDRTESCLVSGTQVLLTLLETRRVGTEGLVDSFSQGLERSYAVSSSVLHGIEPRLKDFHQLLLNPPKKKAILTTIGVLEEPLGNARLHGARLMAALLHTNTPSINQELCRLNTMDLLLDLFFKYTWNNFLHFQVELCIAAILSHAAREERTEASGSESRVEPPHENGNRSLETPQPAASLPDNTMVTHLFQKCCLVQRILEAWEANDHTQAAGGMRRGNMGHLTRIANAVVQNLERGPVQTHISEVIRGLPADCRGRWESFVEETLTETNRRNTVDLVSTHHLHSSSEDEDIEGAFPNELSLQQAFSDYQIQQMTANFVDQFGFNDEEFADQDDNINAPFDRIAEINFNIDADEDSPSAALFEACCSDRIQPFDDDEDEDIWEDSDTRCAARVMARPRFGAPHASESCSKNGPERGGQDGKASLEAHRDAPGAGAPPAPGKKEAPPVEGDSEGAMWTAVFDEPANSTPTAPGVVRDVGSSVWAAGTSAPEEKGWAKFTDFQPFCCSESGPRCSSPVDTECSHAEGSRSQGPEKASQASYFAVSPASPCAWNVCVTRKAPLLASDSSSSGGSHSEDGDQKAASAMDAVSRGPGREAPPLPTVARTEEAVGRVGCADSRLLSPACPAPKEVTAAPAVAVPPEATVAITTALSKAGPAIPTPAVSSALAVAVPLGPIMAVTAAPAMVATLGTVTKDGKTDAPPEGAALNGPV
UniProt Q9NY27: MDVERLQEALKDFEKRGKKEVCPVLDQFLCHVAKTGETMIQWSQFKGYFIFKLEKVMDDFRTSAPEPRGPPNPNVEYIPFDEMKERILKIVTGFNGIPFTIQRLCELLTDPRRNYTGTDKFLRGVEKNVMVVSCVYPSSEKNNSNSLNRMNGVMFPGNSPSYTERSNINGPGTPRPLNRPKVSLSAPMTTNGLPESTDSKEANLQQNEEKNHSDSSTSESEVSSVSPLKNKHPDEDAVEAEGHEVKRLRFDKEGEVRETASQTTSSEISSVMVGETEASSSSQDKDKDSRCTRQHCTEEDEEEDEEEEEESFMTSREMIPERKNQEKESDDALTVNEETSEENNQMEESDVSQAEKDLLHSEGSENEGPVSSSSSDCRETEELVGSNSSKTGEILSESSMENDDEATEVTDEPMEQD
UniProt P42785: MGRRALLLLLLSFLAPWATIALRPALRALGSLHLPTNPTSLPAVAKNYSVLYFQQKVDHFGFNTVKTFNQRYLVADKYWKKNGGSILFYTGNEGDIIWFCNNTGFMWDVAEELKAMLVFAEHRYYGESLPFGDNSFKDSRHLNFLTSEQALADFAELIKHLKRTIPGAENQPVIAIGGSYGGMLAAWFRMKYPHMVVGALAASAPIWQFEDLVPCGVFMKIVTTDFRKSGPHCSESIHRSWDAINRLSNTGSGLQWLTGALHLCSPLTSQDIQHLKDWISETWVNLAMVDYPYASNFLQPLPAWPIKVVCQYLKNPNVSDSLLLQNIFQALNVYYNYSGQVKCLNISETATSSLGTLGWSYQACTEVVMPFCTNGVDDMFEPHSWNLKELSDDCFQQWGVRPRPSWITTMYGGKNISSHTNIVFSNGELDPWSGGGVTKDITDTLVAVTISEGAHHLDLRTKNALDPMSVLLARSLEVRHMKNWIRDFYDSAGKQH
UniProt Q5MIZ7: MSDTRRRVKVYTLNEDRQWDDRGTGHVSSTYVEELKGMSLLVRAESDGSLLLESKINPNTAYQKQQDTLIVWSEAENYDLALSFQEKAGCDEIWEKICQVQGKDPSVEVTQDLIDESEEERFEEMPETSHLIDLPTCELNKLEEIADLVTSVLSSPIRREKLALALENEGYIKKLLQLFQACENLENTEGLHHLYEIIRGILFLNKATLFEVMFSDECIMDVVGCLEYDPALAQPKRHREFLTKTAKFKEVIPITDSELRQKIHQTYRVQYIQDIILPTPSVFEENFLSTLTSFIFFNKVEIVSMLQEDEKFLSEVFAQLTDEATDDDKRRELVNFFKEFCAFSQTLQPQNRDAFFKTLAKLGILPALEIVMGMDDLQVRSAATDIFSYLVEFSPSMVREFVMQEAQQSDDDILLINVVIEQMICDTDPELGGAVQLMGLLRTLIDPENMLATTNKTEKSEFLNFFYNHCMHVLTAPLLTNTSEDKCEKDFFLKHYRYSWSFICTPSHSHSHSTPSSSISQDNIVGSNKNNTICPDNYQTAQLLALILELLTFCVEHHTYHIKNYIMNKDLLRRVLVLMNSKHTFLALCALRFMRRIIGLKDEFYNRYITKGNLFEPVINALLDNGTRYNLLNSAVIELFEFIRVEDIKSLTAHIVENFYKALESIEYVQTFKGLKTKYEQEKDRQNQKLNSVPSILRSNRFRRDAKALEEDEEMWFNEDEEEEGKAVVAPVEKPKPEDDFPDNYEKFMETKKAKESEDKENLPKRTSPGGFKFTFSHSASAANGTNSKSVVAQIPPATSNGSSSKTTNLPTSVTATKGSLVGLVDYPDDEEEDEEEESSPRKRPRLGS
UniProt Q96SB3: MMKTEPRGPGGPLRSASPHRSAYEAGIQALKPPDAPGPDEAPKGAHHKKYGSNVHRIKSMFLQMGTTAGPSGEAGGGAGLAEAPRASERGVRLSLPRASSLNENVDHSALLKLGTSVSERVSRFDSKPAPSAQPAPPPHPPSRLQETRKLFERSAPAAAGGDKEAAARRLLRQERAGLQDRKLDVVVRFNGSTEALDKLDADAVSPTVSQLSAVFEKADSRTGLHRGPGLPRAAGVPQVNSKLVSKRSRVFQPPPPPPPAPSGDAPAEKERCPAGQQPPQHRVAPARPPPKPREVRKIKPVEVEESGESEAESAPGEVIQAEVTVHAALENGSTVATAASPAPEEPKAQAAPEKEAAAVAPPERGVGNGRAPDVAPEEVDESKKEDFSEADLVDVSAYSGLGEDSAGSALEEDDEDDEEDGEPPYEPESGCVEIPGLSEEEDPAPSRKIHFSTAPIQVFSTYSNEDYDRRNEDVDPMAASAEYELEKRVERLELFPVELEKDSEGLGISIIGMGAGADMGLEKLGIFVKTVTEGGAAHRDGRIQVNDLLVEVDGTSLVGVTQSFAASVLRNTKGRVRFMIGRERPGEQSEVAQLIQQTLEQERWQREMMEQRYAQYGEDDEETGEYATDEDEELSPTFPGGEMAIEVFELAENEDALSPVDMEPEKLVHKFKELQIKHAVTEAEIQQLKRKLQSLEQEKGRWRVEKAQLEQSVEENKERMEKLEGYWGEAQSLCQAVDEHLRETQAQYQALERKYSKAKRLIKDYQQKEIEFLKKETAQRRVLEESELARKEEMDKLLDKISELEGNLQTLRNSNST

Compound: CC1Cc2ccccc2N1C(=O)C1CCCN(C1)C(=O)CCl (mixture of isomers) [TRIM25 ligand 11 (diastereomer mixture)]
Test: probe-labelled cysteine peptide fold change vs DMSO (competition) (log2 fold change); higher = less target engagement (more negative = stronger competition)
Settings: THP-1, incubation time: 4 h
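Also: competitive chemoproteomic profiling in live THP-1 cells with an iodoacetamide desthiobiotin (IA-DTB) probe, comparing probe-labelled peptide intensities in compound-treated cells against DMSO-treated controls.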

Row | Target | probe-labelled cysteine peptide fold change (10 µM) | probe-labelled cysteine peptide fold change (50 µM)
1 | PPP1R10_Q96QC0_912_GHDGGHSHGGDMSNRPVCR (UniProt Q96QC0) | 0.052 | -0.201
2 | PPIP5K2_O43314_338_YYDDCAK (UniProt O43314) | -0.000116 | 0.0833
3 | PPP1CC_P36873_202_IMRPTDVPDQGLLCDLLWSDPDK (UniProt P36873) | -0.00289 | -0.0601
4 | PPP4R1_Q8TF05_174_VCPVLIELTAPDSNDDVK (UniProt Q8TF05) | 0.0227 | 0.111
5 | PPP6R1_Q9UPN7_455_ILTSWEENDRVQCAGGPR (UniProt Q9UPN7) | 0.0365 | -0.032
6 | PPP1CB_P62140_61_ICGDIHGQYTDLLR (UniProt P62140) | 0.144 | 0.169
7 | PPIP5K2_O43314_488_VQLTYLPHGCPK (UniProt O43314) | 0.00421 | -0.0556
8 | PPP6R1_Q9UPN7_326_LSCFHQLLLEPPKLEPLQMTWGMLAPPLGNTR (UniProt Q9UPN7) | -0.00375 | -0.128
9 | PPOX_P50336_167_LGPEVASLAMDSLCR (UniProt P50336) | 0.0529 | 0.0999
10 | PRAM1_Q96QH2_629_RGEILEVIEFTSNEEMLCRDPK (UniProt Q96QH2) | -0.103 | -0.0439
11 | PPP6R2_O75170_37_EHVTLQELMDEDDILQECK (UniProt O75170) | 0.0642 | -0.0464
12 | PPP3CA_Q08209_88_NLLDIDAPVTVCGDIHGQFFDLMK (UniProt Q08209) | 0.14 | -0.0609
13 | PPP4R2_Q9NY27_30_EVCPVLDQFLCHVAK (UniProt Q9NY27) | 0.0846 | 0.0644
14 | PPP4C_P60510_52_VDSPVTVCGDIHGQFYDLK (UniProt P60510) | 0.101 | -0.0221
15 | PPP4R3A_Q6IN85_135_DPSVDITQDLVDESEEERFDDMSSPGLELPSCELSR (UniProt Q6IN85) | -0.199 | 0.0962
16 | PPP1R18_Q6NYC8_611_ALIVDESCRR (UniProt Q6NYC8) | -0.0805 | -0.177

A second format for part of the listing above:
Row,Target,probe-labelled cysteine peptide fold change (10 µM),probe-labelled cysteine peptide fold change (50 µM)
12,PPP3CA_Q08209_88_NLLDIDAPVTVCGDIHGQFFDLMK (UniProt Q08209),0.14,-0.0609
13,PPP4R2_Q9NY27_30_EVCPVLDQFLCHVAK (UniProt Q9NY27),0.0846,0.0644

(listing goes on)

Row | Target | probe-labelled cysteine peptide fold change (10 µM) | probe-labelled cysteine peptide fold change (50 µM)
17 | PPOX_P50336_410_EMPSHCLVHLHK (UniProt P50336) | -0.0029 | -0.0412
18 | PREX1_Q8TCU6_120_DFLAALEYCLHPEPQSQHELGNVFLK (UniProt Q8TCU6) | 0.176 | 0.0217
19 | PPM1B_O75688_272_LEVSDDLENVCNWVVDTCLHK (UniProt O75688) | -0.122 | 0.00825
20 | PRCP_P42785_394_ELSDDCFQQWGVRPR (UniProt P42785) | 0.151 | 0.151
21 | PPP6R2_O75170_216_QSNASQTLCDIVR (UniProt O75170) | 0.0682 | 0.239
22 | PRCP_P42785_233_SGPHCSESIHR (UniProt P42785) | 0.424 | 0.189
23 | PREPL_Q4J6C6_391_LPPWACGFIMDTNSDPK (UniProt Q4J6C6) | -0.175 | -0.153
24 | PPP1R21_Q6ZMI0_696_SVHFYAECR (UniProt Q6ZMI0) | -0.013 | 0.0172
25 | PPP4R3B_Q5MIZ7_90_AGCDEIWEK (UniProt Q5MIZ7) | 0.219 | 0.316
26 | PRDX2_P32119_172_LVQAFQYTDEHGEVCPAGWK (UniProt P32119) | 0.0996 | 0.154
27 | PPP1R15B_Q5SWA1_686_IQETEDAIGYCLTFEHR (UniProt Q5SWA1) | -0.074 | -0.272
28 | PPP6R3_Q5H9R7_216_LVEIVHPSQEEDRHSNASQSLCEIVR (UniProt Q5H9R7) | -0.144 | -0.238
29 | PPP1R9B_Q96SB3_732_LEGYWGEAQSLCQAVDEHLR (UniProt Q96SB3) | 0.347 | 0.254
30 | PPIL4_Q8WUA2_245_TQAILLEMVGDLPDADIKPPENVLFVCK (UniProt Q8WUA2) | 0.115 | 0.268
31 | PPP1R8_Q12972_58_NPDLCDFTIDHQSCSR (UniProt Q12972) | 0.235 | -0.0582
